Measured data: PubChem BioAssay AID1224830 (NIAID, 2016)
The whole screen tested about 18,000 reagents; below is an unselected part. Of all reagents, about 2,900 (16%) got an active call. 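Calls are made per well; low scores hint the gene aids the LPS response, high scores that it dampens it.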 Repeated entries: four replicate wells of each siRNA pool. Reagent sequences are not shown.

Screen: 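Regulators of TLR4 signalling towards TNF-alpha in macrophage-like cells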 (primary screen)
Cell system: human THP-1 monocytic leukaemia cells, TNF dual-luciferase reporter clone, PMA-differentiated to macrophage-like cells
Reagent: siRNA pool against human genes, 50 nM
Time to read-out: LPS for 4 h, given about 3 days after siRNA transfection
Conditions: bacterial LPS (TLR4 ligand), 10 ng/ml
Detection: 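TNF firefly reporter luminescence divided by renilla, normalised to the plate median, then turned into a robust z-score for each replicate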
Direction: TNF reporter robust z-score: higher = stronger TNF reporter response to LPS
Rule for the call: 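a well is active when its z-score exceeds 2.8 or falls below -1.5; control wells carry no call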

gene | TNF reporter robust z-score | Call
CCL26 (C-C motif chemokine ligand 26) | 0.42 | inactive
CCL26 (C-C motif chemokine ligand 26) | 0.59 | inactive
CCL26 (C-C motif chemokine ligand 26) | 0.35 | inactive
CCL26 (C-C motif chemokine ligand 26) | 0.51 | inactive
AGMO (alkylglycerol monooxygenase) | -1.12 | inactive
AGMO (alkylglycerol monooxygenase) | -0.22 | inactive
AGMO (alkylglycerol monooxygenase) | -0.56 | inactive
AGMO (alkylglycerol monooxygenase) | 0 | inactive
KRTAP4-2 (keratin associated protein 4-2) | 1.38 | inactive
KRTAP4-2 (keratin associated protein 4-2) | 1.68 | inactive
KRTAP4-2 (keratin associated protein 4-2) | 1.7 | inactive
KRTAP4-2 (keratin associated protein 4-2) | 1.06 | inactive
CDH17 (cadherin 17) | 0.7 | inactive
CDH17 (cadherin 17) | 1.07 | inactive
CDH17 (cadherin 17) | 0.16 | inactive
CDH17 (cadherin 17) | -0.67 | inactive
POU2AF2 (POU class 2 homeobox associating factor 2) | -0.47 | inactive
POU2AF2 (POU class 2 homeobox associating factor 2) | -0.63 | inactive
POU2AF2 (POU class 2 homeobox associating factor 2) | -1.35 | inactive
POU2AF2 (POU class 2 homeobox associating factor 2) | -1.6 | active
SMURF1 (SMAD specific E3 ubiquitin protein ligase 1) | 1.22 | inactive
SMURF1 (SMAD specific E3 ubiquitin protein ligase 1) | 0.75 | inactive
SMURF1 (SMAD specific E3 ubiquitin protein ligase 1) | -0.34 | inactive
SMURF1 (SMAD specific E3 ubiquitin protein ligase 1) | 1.43 | inactive
CLMB (calcimembrin) | -0.26 | inactive
CLMB (calcimembrin) | 0.35 | inactive
CLMB (calcimembrin) | 2.54 | inactive
CLMB (calcimembrin) | 0.03 | inactive
CLTB (clathrin light chain B) | 0.42 | inactive
CLTB (clathrin light chain B) | 0.22 | inactive
CLTB (clathrin light chain B) | 0.6 | inactive
CLTB (clathrin light chain B) | 0.04 | inactive
SPANXC (SPANX family member C) | 1.03 | inactive
SPANXC (SPANX family member C) | 2.55 | inactive
SPANXC (SPANX family member C) | 1.14 | inactive
SPANXC (SPANX family member C) | 1.89 | inactive
GPR119 (G protein-coupled receptor 119) | 0.9 | inactive
GPR119 (G protein-coupled receptor 119) | 0.95 | inactive
GPR119 (G protein-coupled receptor 119) | 0.62 | inactive
AIM2 (absent in melanoma 2) | 1.32 | inactive
AIM2 (absent in melanoma 2) | 0.47 | inactive
AIM2 (absent in melanoma 2) | 1 | inactive
AIM2 (absent in melanoma 2) | 1.33 | inactive
OTOL1 (otolin 1) | 1.05 | inactive
OTOL1 (otolin 1) | 2.56 | inactive
OTOL1 (otolin 1) | -0.54 | inactive
OTOL1 (otolin 1) | 1.65 | inactive

No new results follow: 6 of the entries above.
gene | TNF reporter robust z-score | Call
KRTAP4-2 (keratin associated protein 4-2) | 1.68 | inactive
KRTAP4-2 (keratin associated protein 4-2) | 1.7 | inactive
KRTAP4-2 (keratin associated protein 4-2) | 1.06 | inactive
CDH17 (cadherin 17) | 0.7 | inactive
CDH17 (cadherin 17) | 1.07 | inactive
CDH17 (cadherin 17) | 0.16 | inactive
